Results reported in PubChem BioAssay AID624297 (National Center for Advancing Translational Sciences (NCATS), 2012).
Screen size: about 340,000 compounds; about 6,200 (1.8%) were called active. Inconclusive means that the source gave no clear call. Such entries were picked first, then a sample of the others. The call rests on the fitted dose curve; in most records, active means well fitted activation curve with a large enough effect; inconclusive means small, poorly fitted or top-dose-only effect; inactive means no such curve, though single readings can be large or run the other way. Potencies of inconclusive entries are doubtful fits and often do not repeat.

Assay: A quantitative high throughput screen for small molecules that induce DNA re-replication in SW480 colon adenocarcinoma cells. Further: nearly all actives have a fitted effect of over 55% in size. On re-replication activation: % of control where 0% means no effect.
Conditions: Hoechst DNA content imaging, 48 h; re-replication activation: at 46.1 µM (top of the series) unless noted
How it was run: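 DNA re-replication was detected as more nuclei of elevated Hoechst intensity after 48 hr exposure to compound (23 nL pinned per well of 250 cells).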
Potency means the concentration at half of the fitted maximal effect.

Q: Which Potency does the source give for `Brc1cnc(OCc2ccccc2)nc1OCc1ccccc1` here?
A: inconclusive: 0.13 µM [activator, full curve, poor fit]

Q: Which “re-replication activation” value does the source give for `C=CCc1ccc(OCc2ccc(C(=O)OC)o2)c(OC)c1` here?
A: inactive: -0.736%

Q: Which Potency does the source give for `O=C(NC1CCCCCC1)c1ccc(CS(=O)Cc2cccc(Cl)c2)o1` (stereo not given) here?
A: inconclusive: 0.146 µM [activator, full curve, poor fit]

Q: With `CCOc1ccc(NC(=O)c2ccc(-n3cccn3)nc2)cc1` as the molecule, how does the Potency read?
A: inconclusive: 6.51 µM [activator, single point]

Q: Which “re-replication activation” value does the source give for `CCC(=O)NC(=S)Nc1ccc(NC(=S)NC(=O)c2ccccc2)cc1` here?
A: inactive: 0.148%

Q: Which Potency does the source give for `CC1CCC2C(=O)N(c3ccc(Cc4ccncc4)cc3)C(=O)C2C1` (stereo not given) here?
A: inconclusive: 1.16 µM [activator, full curve, poor fit]

Q: Which “re-replication activation” value does the source give for `CSc1cc(C)c(OCC(=O)Nc2c(C)nn(C)c2C)c(C)c1` here?
A: inactive: 2.2%

Q: With `CC(C)c1nnc(NC(=O)C2CCN(C(=O)Nc3ccccc3)CC2)s1` as the molecule, how does the Potency read?
A: inconclusive: 1.58 µM [activator, single point]

Q: For `O=[N+]([O-])c1ccc(-c2nnc(-c3ccccc3)c(N3CCOCC3)n2)cc1`, which “re-replication activation” value is on record?
A: inactive: -5.04%

Q: For `NC(=O)C1CCN(C(=O)C(Cc2ccccc2)NC(=O)c2ccccc2)CC1` (stereo not given), which Potency is on record?
A: active: 20.6 µM

Q: Which Potency does the source give for `CCc1ccc(NC(=O)c2sc3nc4n(c(=O)c3c2C)CCC4)cc1` here?
A: inconclusive: 6.51 µM [activator, partial curve, poor fit]

Q: With `COc1cc2c(cc1OC)C(c1ccccc1)CC2=O` (stereo not given) as the molecule, how does the re-replication activation read?
A: inconclusive: -30.4% [activator]

Q: Which Potency does the source give for `COc1cc2c(cc1OC)C(C)N(C(=O)c1cc3n(n1)C(C(F)(F)F)CC(c1ccco1)N3)CC2` (stereo not given) here?
A: inconclusive: 6.51 µM [activator, single point]

Q: Which Potency does the source give for `CCC(C)(C)n1nnnc1CN1CCC(c2nc3ccc(C)cc3[nH]2)CC1` here?
A: inconclusive: 29.1 µM [activator, single point]

Q: Which Potency does the source give for `CC(=O)n1cc([C@@H]2C=C(C(=O)O)O[C@H](OCc3ccc(CO)cc3)C2)c2ccccc21` here?
A: inconclusive: 25.9 µM [activator, single point]

Q: For `CCn1c(SCC(=O)N2CCCCC2C)nc2c1c(=O)n(C)c(=O)n2C` (stereo not given), which “re-replication activation” value is on record?
A: inactive: -2.06%

Q: Which Potency does the source give for `O=C(COC(=O)c1cccc(S(=O)(=O)N2CCCCCC2)c1)Nc1ccccc1` here?
A: inconclusive: 6.51 µM [activator, single point]

Q: With `CSc1ccccc1OCc1cc(C(=O)NC(C)Cn2cncn2)no1` (stereo not given) as the molecule, how does the “re-replication activation” value read?
A: inactive: 2.39%

Q: With `OC(COc1ccccc1)CN1CCCC1` (stereo not given) as the molecule, how does the “re-replication activation” value read?
A: inactive: -22.9%

Q: With `Cc1cc(C)n(-c2ccc(C(=O)OC(C)C)cc2)n1` as the molecule, how does the Potency read?
A: inconclusive: 29.1 µM [activator, partial curve, poor fit]
